Results are given in words; binding and its absence hold for the method and conditions named. In cells and extracts the contact can be indirect. Some binding calls cover weakened binding; strength is not graded here.
B1: eIF4AIII, endogenous in ovaries, Q9VHS8 1-399 (protein)
chain: MARKNAQAEDLSNVEFETSEDVEVIPTFNAMNLKEELLRGIYAYGFEKPSAIQQRSITPIVKGRDVIAQAQSGTGKTATFSISILQSLDTTLRETQVLCLSPTRELAVQIQKVILALGDMMNVQCHVCIGGTNLGEDIRKLDYGQHIVSGTPGRVFDMIKRRVLRTRAIKMLVLDEADEMLNKGFKEQIYDVYRYLPPATQVVLISATLPHEILEMTSKFMTDPIRILVKRDELTLEGIKQFFVAVEREEWKFDTLCDLYDTLTITQAVIFCNTKRKVDWLTEKMREANFTVSSMHGDMPQKERDEIMKEFRAGQSRVLITTDVWARGIDVQQVSLVINYDLPNNRELYIHRIGRSGRFGRKGVAINFVKSDDIRILRDIEQYYSTQIDEMPMNVADLI
B2: CBP20, endogenous in ovaries (protein, UniProt Q9V3L6 1-154)
chain: MFASVELSSYRDQHFKGSRSEQERSLRDSCTLYVGNLSFYTTEEQIHELFSRCGDVRVIVMGLDKYKKTPCGFCFVEYYVRSEAEAAMRFVNGTRLDDRLIRVDWDAGFVEGRQYGRGKTGGQVRDEYRTDYDAGRGGYGKLLSQKIAPNTDNR

Chains of the proteins cited; added tags and fusions are not shown.
UniProt P82804: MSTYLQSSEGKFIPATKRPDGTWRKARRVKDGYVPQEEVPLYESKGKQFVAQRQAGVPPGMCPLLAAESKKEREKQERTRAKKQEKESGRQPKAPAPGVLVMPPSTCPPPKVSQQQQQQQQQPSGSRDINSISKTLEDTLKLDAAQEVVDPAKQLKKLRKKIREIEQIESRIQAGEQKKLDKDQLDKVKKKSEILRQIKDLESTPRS

Assays:
[1] = biological target: GFP-Mago (transgene, ovaries) (Drosophila), P49028; assay: co-IP; GFP-Trap beads on cytoplasmic extracts of osk^A87/+ ovaries co-expressing GFP-Mago and a FLAG-tagged PYM construct; washes with 600 mM KCl; western blot of 20% of the beads; conditions: remark: other sources report otherwise
[2] = biological target: Drosophila PYM (DmPYM), endogenous (Drosophila (endogenous in fly ovaries)) (UniProt P82804); assay: co-IP; anti-PYM antibody (anti-HA as unrelated antibody) on cytoplasmic extract of wild-type ovaries, 4°C, with or without RNase; washes with 300 mM KCl, 0.2% NP-40; western blot

Binder | binding [1] | binding [2]
B1 | binds | 
B2 |  | no binding

Source: PMC4072592
